Reference: patent US9205071B2, “Arsenic compounds, their preparation methods and uses thereof” (Changzhou Hi-Tech District Multiple Dimension Industry …, priority 2009, dated 2015)

System: HL-60 cells
Test: Cell proliferation test (MTT method)
Format: cell-based
Conditions: 48 h, MTT absorbance at 492 nm
Method: Tested drugs with different concentrations were added, and repeated four wells for each drug concentration group, then continued to culture in a CO2 incubator. Cell proliferation was detected by MTT method 48 h after culture. 15 ul MTT (5 mg/ml) was added in each well, and continued to culture for 4 h. Suspension in the well was collected, centrifuged, and supernatant was discarded. 100 ul of DMSO was added into each well to completely dissolve formazan particles. The solution was sucked into the original well, the absorbance at 492 nm was detected by ELISA, and the inhibiting rate was calculated according to the formula CI=(1-A test group /A control group)×100%.

SMILES: O=[As]([O-])([O-])[O-].[Na+].[Na+].[Na+] [Na3AsO4]
- A492 (7.5 uM): 0.331 ± 0.003 ^
- A492 (15 uM): 0.313 ± 0.011* *
- A492 (30 uM): 0.293 ± 0.015* *
- A492 (60 uM): 0.257 ± 0.011*^
- A492 (120 uM): 0.215 ± 0.006*^

Marks after values point to notes of the source that are not given here.
